Patent US6995018
Results are given in words; binding and its absence hold for the method and conditions named. A result given as binding can be weak or reduced; the word gives no strength.

Amino acid sequences for entries named in this document (tags omitted). A change or cut given only in a name is not applied to a line headed by its entry. Residues count along the entry.
UniProt P08603, residues 19-1231: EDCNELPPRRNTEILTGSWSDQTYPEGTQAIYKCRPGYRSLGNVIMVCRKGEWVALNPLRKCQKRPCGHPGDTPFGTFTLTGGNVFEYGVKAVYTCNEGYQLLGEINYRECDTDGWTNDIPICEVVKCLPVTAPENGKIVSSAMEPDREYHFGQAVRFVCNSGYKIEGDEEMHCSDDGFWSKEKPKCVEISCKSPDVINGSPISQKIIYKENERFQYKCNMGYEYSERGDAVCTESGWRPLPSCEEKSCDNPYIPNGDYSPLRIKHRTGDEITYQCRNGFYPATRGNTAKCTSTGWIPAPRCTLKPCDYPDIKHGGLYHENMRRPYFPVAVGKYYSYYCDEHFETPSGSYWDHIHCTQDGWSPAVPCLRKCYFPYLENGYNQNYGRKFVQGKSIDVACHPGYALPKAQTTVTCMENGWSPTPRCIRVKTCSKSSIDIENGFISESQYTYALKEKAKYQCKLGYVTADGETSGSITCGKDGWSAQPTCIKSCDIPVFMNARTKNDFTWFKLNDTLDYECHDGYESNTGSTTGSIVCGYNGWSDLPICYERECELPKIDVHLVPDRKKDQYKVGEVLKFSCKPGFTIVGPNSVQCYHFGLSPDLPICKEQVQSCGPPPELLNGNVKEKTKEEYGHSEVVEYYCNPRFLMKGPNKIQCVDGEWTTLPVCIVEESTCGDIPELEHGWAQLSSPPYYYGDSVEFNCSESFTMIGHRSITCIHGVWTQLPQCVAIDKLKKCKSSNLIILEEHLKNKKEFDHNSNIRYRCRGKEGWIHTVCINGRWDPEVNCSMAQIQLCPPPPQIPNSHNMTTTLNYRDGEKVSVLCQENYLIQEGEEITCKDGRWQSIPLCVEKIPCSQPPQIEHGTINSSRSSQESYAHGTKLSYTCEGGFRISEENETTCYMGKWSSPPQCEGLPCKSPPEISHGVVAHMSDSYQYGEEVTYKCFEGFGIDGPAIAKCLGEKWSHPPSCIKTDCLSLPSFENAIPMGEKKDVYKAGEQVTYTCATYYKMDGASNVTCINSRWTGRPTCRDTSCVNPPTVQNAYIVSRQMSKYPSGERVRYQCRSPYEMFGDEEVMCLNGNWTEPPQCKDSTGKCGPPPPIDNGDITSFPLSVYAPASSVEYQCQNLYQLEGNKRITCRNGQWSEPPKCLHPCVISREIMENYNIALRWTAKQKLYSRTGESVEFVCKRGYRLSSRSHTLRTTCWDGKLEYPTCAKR
UniProt P10451: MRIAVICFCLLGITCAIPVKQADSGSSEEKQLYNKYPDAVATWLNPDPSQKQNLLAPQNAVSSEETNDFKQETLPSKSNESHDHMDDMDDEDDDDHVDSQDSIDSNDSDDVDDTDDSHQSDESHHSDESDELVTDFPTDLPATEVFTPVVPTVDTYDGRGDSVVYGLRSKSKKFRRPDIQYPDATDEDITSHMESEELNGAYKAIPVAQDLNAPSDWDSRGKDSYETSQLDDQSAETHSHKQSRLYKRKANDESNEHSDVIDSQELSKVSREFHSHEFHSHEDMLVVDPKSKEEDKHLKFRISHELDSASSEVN

Legend:
[1] = target: human complement Factor H (human) (UniProt P08603); test: summary of the experiments of section II
[2] = target: human complement Factor H (human) (UniProt P08603); test: steady state tryptophan fluorescence quenching, titration of Factor H
[3] = target: human complement Factor H (human) (UniProt P08603); test: steady state fluorescence, titration of purified human Factor H with rOPN

- binding [1]: binds
- binding [2]: binds
- binding [3]: binds
Substance: recombinant osteopontin (rOPN) (from UniProt P10451) (ligand)
